Experiment in all cases: SEC; Superdex 200 10/300 GL; 50 mM HEPES pH 7.5, 5 mM MgCl2, 100 mM NaCl; data not shown; both purified
In general terms: In gel filtration, larger molecules generally elute earlier.

For experiment [1], the target named is T1, human UDP-glucose pyrophosphorylase isoform 1, wild type, StrepII-tagged (human), Q16851.
T1 chain: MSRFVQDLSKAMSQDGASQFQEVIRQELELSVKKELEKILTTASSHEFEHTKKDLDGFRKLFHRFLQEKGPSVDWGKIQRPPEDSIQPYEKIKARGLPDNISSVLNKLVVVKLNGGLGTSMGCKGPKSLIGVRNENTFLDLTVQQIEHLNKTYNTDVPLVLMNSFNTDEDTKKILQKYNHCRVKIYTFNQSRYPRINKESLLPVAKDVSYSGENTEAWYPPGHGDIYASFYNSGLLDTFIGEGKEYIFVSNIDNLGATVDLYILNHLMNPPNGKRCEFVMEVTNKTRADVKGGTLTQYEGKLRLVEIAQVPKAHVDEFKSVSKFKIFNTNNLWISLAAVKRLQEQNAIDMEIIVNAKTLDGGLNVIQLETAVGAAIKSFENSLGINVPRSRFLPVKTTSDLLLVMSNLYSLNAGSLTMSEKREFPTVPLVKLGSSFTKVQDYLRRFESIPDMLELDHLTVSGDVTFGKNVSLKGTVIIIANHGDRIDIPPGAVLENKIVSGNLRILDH
The note with it: remark: other sources report otherwise.

The target of experiment [2] is human UDP-glucose pyrophosphorylase isoform 1, double mutant R287E/D456K, StrepII-tagged (human) (UniProt Q16851).
Experiment [3] deals with human UDP-glucose pyrophosphorylase isoform 1, double mutant R287L/D456K, StrepII-tagged (human) (UniProt Q16851).
Experiment [4] addresses human UDP-glucose pyrophosphorylase isoform 1, mutant D456K, StrepII-tagged (human) (UniProt Q16851).
Experiment [5] deals with human UDP-glucose pyrophosphorylase isoform 1, mutant R287L, StrepII-tagged (human) (UniProt Q16851).
In experiment [6] the target is human UDP-glucose pyrophosphorylase isoform 1, mutant R287E, StrepII-tagged (human) (UniProt Q16851).

Results are given in words; binding and its absence hold for the method and conditions named. Some results given as binding are weak or reduced against the parent protein; the word gives no strength. Tags and fused reporters may be left off the sequences shown.

B1: human UDP-glucose pyrophosphorylase isoform 1, wild type, StrepII-tagged, Q16851 1-508 (enzyme)
chain: MSRFVQDLSKAMSQDGASQFQEVIRQELELSVKKELEKILTTASSHEFEHTKKDLDGFRKLFHRFLQEKGPSVDWGKIQRPPEDSIQPYEKIKARGLPDNISSVLNKLVVVKLNGGLGTSMGCKGPKSLIGVRNENTFLDLTVQQIEHLNKTYNTDVPLVLMNSFNTDEDTKKILQKYNHCRVKIYTFNQSRYPRINKESLLPVAKDVSYSGENTEAWYPPGHGDIYASFYNSGLLDTFIGEGKEYIFVSNIDNLGATVDLYILNHLMNPPNGKRCEFVMEVTNKTRADVKGGTLTQYEGKLRLVEIAQVPKAHVDEFKSVSKFKIFNTNNLWISLAAVKRLQEQNAIDMEIIVNAKTLDGGLNVIQLETAVGAAIKSFENSLGINVPRSRFLPVKTTSDLLLVMSNLYSLNAGSLTMSEKREFPTVPLVKLGSSFTKVQDYLRRFESIPDMLELDHLTVSGDVTFGKNVSLKGTVIIIANHGDRIDIPPGAVLENKIVSGNLRILDH
For the molecule B1, the binding result in experiment [1] is “binds”.

B2: human UDP-glucose pyrophosphorylase isoform 1, double mutant R287E/D456K, StrepII-tagged (enzyme, UniProt Q16851 1-508, looked up)
chain: MSRFVQDLSKAMSQDGASQFQEVIRQELELSVKKELEKILTTASSHEFEHTKKDLDGFRKLFHRFLQEKGPSVDWGKIQRPPEDSIQPYEKIKARGLPDNISSVLNKLVVVKLNGGLGTSMGCKGPKSLIGVRNENTFLDLTVQQIEHLNKTYNTDVPLVLMNSFNTDEDTKKILQKYNHCRVKIYTFNQSRYPRINKESLLPVAKDVSYSGENTEAWYPPGHGDIYASFYNSGLLDTFIGEGKEYIFVSNIDNLGATVDLYILNHLMNPPNGKRCEFVMEVTNKTEADVKGGTLTQYEGKLRLVEIAQVPKAHVDEFKSVSKFKIFNTNNLWISLAAVKRLQEQNAIDMEIIVNAKTLDGGLNVIQLETAVGAAIKSFENSLGINVPRSRFLPVKTTSDLLLVMSNLYSLNAGSLTMSEKREFPTVPLVKLGSSFTKVQDYLRRFESIPDMLELKHLTVSGDVTFGKNVSLKGTVIIIANHGDRIDIPPGAVLENKIVSGNLRILDH
For the molecule B2, the binding result in experiment [2] is “binds”.

B3: human UDP-glucose pyrophosphorylase isoform 1, double mutant R287L/D456K, StrepII-tagged (enzyme, UniProt Q16851 1-508, looked up)
chain: MSRFVQDLSKAMSQDGASQFQEVIRQELELSVKKELEKILTTASSHEFEHTKKDLDGFRKLFHRFLQEKGPSVDWGKIQRPPEDSIQPYEKIKARGLPDNISSVLNKLVVVKLNGGLGTSMGCKGPKSLIGVRNENTFLDLTVQQIEHLNKTYNTDVPLVLMNSFNTDEDTKKILQKYNHCRVKIYTFNQSRYPRINKESLLPVAKDVSYSGENTEAWYPPGHGDIYASFYNSGLLDTFIGEGKEYIFVSNIDNLGATVDLYILNHLMNPPNGKRCEFVMEVTNKTLADVKGGTLTQYEGKLRLVEIAQVPKAHVDEFKSVSKFKIFNTNNLWISLAAVKRLQEQNAIDMEIIVNAKTLDGGLNVIQLETAVGAAIKSFENSLGINVPRSRFLPVKTTSDLLLVMSNLYSLNAGSLTMSEKREFPTVPLVKLGSSFTKVQDYLRRFESIPDMLELKHLTVSGDVTFGKNVSLKGTVIIIANHGDRIDIPPGAVLENKIVSGNLRILDH
For the molecule B3, the binding entry in experiment [3] is listed as “binds”.

B4: human UDP-glucose pyrophosphorylase isoform 1, mutant D456K, StrepII-tagged (enzyme, UniProt Q16851 1-508, looked up)
chain: MSRFVQDLSKAMSQDGASQFQEVIRQELELSVKKELEKILTTASSHEFEHTKKDLDGFRKLFHRFLQEKGPSVDWGKIQRPPEDSIQPYEKIKARGLPDNISSVLNKLVVVKLNGGLGTSMGCKGPKSLIGVRNENTFLDLTVQQIEHLNKTYNTDVPLVLMNSFNTDEDTKKILQKYNHCRVKIYTFNQSRYPRINKESLLPVAKDVSYSGENTEAWYPPGHGDIYASFYNSGLLDTFIGEGKEYIFVSNIDNLGATVDLYILNHLMNPPNGKRCEFVMEVTNKTRADVKGGTLTQYEGKLRLVEIAQVPKAHVDEFKSVSKFKIFNTNNLWISLAAVKRLQEQNAIDMEIIVNAKTLDGGLNVIQLETAVGAAIKSFENSLGINVPRSRFLPVKTTSDLLLVMSNLYSLNAGSLTMSEKREFPTVPLVKLGSSFTKVQDYLRRFESIPDMLELKHLTVSGDVTFGKNVSLKGTVIIIANHGDRIDIPPGAVLENKIVSGNLRILDH
Turning to B4, the binding entry in experiment [4] is “binds”.

B5: human UDP-glucose pyrophosphorylase isoform 1, mutant R287L, StrepII-tagged (enzyme, UniProt Q16851 1-508, looked up)
chain: MSRFVQDLSKAMSQDGASQFQEVIRQELELSVKKELEKILTTASSHEFEHTKKDLDGFRKLFHRFLQEKGPSVDWGKIQRPPEDSIQPYEKIKARGLPDNISSVLNKLVVVKLNGGLGTSMGCKGPKSLIGVRNENTFLDLTVQQIEHLNKTYNTDVPLVLMNSFNTDEDTKKILQKYNHCRVKIYTFNQSRYPRINKESLLPVAKDVSYSGENTEAWYPPGHGDIYASFYNSGLLDTFIGEGKEYIFVSNIDNLGATVDLYILNHLMNPPNGKRCEFVMEVTNKTLADVKGGTLTQYEGKLRLVEIAQVPKAHVDEFKSVSKFKIFNTNNLWISLAAVKRLQEQNAIDMEIIVNAKTLDGGLNVIQLETAVGAAIKSFENSLGINVPRSRFLPVKTTSDLLLVMSNLYSLNAGSLTMSEKREFPTVPLVKLGSSFTKVQDYLRRFESIPDMLELDHLTVSGDVTFGKNVSLKGTVIIIANHGDRIDIPPGAVLENKIVSGNLRILDH
Consider B5, for which, in experiment [5], the binding result is given as “binds”.

B6: human UDP-glucose pyrophosphorylase isoform 1, mutant R287E, StrepII-tagged (enzyme, UniProt Q16851 1-508, looked up)
chain: MSRFVQDLSKAMSQDGASQFQEVIRQELELSVKKELEKILTTASSHEFEHTKKDLDGFRKLFHRFLQEKGPSVDWGKIQRPPEDSIQPYEKIKARGLPDNISSVLNKLVVVKLNGGLGTSMGCKGPKSLIGVRNENTFLDLTVQQIEHLNKTYNTDVPLVLMNSFNTDEDTKKILQKYNHCRVKIYTFNQSRYPRINKESLLPVAKDVSYSGENTEAWYPPGHGDIYASFYNSGLLDTFIGEGKEYIFVSNIDNLGATVDLYILNHLMNPPNGKRCEFVMEVTNKTEADVKGGTLTQYEGKLRLVEIAQVPKAHVDEFKSVSKFKIFNTNNLWISLAAVKRLQEQNAIDMEIIVNAKTLDGGLNVIQLETAVGAAIKSFENSLGINVPRSRFLPVKTTSDLLLVMSNLYSLNAGSLTMSEKREFPTVPLVKLGSSFTKVQDYLRRFESIPDMLELDHLTVSGDVTFGKNVSLKGTVIIIANHGDRIDIPPGAVLENKIVSGNLRILDH
For the molecule B6, the binding result in experiment [6] was “binds”.

Values taken from paper PMC5381698, “A Quaternary Mechanism Enables the Complex Biological Functions of Octameric Human UDP-glucose Pyrophosphorylase, a Key Enzyme in Cell Metabolism” (Scientific Reports, 2015).
